Screening data, single-dose tests

Amino acid sequences for entries named in this document (tags omitted).
UniProt I6X8D2, whole entry: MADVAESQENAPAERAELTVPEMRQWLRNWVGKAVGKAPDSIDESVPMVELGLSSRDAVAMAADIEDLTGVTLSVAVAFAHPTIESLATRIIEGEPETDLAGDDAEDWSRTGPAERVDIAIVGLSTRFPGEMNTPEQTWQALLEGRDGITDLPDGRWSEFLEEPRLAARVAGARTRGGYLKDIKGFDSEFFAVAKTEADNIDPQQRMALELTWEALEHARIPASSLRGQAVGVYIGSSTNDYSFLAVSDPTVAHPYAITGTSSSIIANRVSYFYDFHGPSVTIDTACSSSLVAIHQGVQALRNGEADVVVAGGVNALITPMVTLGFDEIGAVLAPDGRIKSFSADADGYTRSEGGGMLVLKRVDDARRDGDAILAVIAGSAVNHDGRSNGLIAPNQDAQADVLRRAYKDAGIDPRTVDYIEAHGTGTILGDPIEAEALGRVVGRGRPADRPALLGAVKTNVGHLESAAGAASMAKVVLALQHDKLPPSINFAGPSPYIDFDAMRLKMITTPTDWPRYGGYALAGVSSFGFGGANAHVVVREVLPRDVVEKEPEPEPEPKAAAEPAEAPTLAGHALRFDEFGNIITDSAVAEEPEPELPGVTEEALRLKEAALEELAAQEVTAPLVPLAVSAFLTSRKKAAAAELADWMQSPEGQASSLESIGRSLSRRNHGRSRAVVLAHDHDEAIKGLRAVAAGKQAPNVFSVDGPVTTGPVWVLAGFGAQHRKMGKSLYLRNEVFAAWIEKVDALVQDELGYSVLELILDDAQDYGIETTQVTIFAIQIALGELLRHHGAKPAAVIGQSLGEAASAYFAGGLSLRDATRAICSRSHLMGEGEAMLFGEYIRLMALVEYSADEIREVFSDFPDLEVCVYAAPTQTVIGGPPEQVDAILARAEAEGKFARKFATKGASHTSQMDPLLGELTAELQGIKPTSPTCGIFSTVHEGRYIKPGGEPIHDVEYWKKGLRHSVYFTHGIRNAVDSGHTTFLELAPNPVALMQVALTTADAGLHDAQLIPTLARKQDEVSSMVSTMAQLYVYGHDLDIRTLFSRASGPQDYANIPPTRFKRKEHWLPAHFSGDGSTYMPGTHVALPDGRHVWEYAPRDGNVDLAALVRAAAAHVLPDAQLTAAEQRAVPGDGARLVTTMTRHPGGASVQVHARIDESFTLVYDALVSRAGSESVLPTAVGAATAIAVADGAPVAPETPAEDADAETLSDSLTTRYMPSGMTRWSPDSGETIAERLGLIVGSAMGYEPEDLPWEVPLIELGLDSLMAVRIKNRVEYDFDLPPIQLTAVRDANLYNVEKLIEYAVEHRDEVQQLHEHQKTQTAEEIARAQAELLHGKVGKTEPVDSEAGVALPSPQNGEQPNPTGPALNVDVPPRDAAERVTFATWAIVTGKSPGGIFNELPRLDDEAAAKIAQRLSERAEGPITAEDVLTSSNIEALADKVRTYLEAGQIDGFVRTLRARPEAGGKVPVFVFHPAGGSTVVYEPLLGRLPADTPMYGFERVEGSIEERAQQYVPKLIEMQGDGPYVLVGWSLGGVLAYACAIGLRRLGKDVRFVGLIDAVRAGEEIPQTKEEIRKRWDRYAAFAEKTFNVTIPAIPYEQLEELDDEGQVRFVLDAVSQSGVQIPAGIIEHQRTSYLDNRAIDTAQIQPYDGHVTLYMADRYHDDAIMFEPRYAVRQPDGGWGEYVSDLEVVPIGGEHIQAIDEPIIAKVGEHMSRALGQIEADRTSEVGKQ

Source: ChEMBL document CHEMBL3988442, “University of Dundee, Small-Polar-MMV Screening Library” (2021).

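Enzyme assay of the thioesterase domain of polyketide synthase 13; the read-out is not stated. Target: Polyketide synthase Pks13, Mycobacterium tuberculosis (UniProt I6X8D2). Tested at 30 µM. The record gives no direction; the compounds picked for IC50 retests had high values, so higher reads as stronger inhibition. Of about 67,000 compounds tested this way, about 300 (0.46%) reached 50% or more in at least one test.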

The filed quantity is “Percent Effect” (%). The controls that fix the scale are not given in the record; negative values are as filed. This is an unselected part of the compounds tested.

structure	Percent Effect
O=S(=O)(c1ccc(F)cc1)n1cc(Cl)cn1	0.4505
COc1c(C(=O)N2CCC(COCc3ccccc3)C2)c(C)nn1C (centres undefined)	-16.41
CCn1ncnc1C(C)Nc1cc(C2CC2)ncn1 (centres undefined)	9.411
COCCN(CCOC)C(=O)c1ccn(-c2ccccc2Cl)n1	-14.06
CN(C)C(=O)CCS(=O)(=O)Cc1coc(-c2ccc(F)cc2)n1	-9.684
O=C(Nc1ccnc2ccnn12)c1ccc(NC2CC2)nc1	-33.85
Cc1nc(COC[C@@]23CCC[C@@H]2CN(Cc2nccs2)C3)cs1	-28.85
COC(=O)CNC(=O)CSCc1nc(O)c2c(C)c(C)sc2n1	-26.41
CN(Cc1ccco1)c1ccc(-c2nccn2C)nn1	27.85
CC(=O)N1CCN(CCNS(=O)(=O)c2cccc(F)c2)CC1	-3.819
COCC(=O)N1C[C@@H](CN2CCCN(C)CC2)[C@@H](CO)C1	-26.6
COc1cccc2c1OCC(C(=O)N1CCN(C3CCSCC3)CC1)C2 (centres undefined)	-18.24
O=C(CCc1ccco1)N1CCc2[nH]nc(COc3ccccc3)c2C1	44.33
c1ccc(-c2noc(CN3CCOC(Cn4cccn4)C3)n2)nc1 (centres undefined)	-5.939
CC(C)N(CC(=O)Nc1ccc(Br)cc1Cl)Cc1cccnc1	-12.58
Cc1nnc([C@@H]2CC[C@@H]3[C@@H](CCN3S(C)(=O)=O)O2)o1	-15.61
CN(C)C(=O)N1CCOCC2(CCN(c3ncccn3)C2)C1 (centres undefined)	-14.21
CCC1CN(C)c2ccccc2CN1CCn1cncn1 (centres undefined)	-5.077
CCNC(=O)N1CCc2ccc(NC(=O)NCc3ccsc3)cc21	18.21
CCc1nnsc1C(=O)N1CCN(CC(O)CC)CC1 (centres undefined)	-9.379
COc1cnc(C2(O)CCN(C(=O)c3ccco3)CC2)c(OC)n1	43.62
CCCc1nc2c(c(C)c(C)n2CCN(C)C)c(N)c1CC	-10.59
Cc1cc(C)c2c(c1)NC(=O)C2CC(=O)O (centres undefined)	-5.327
CCN1CCN(CCCNC(=O)NC(C)c2nncn2C)CC1 (centres undefined)	-25.7
CCn1cc(Br)c(C(=O)NCc2cccnc2)n1	-14.39
CN(C)c1nc2c(c(=O)[nH]1)CCN(C(=O)C1CCCO1)C2 (centres undefined)	-2.778
Cc1nc(CN2C[C@@H]3CN(C(=O)[C@H]4CCCO4)C[C@@H]3C2=O)cs1	-17.5
O=C1CN(c2ccc(CNC(=O)NCCO)cc2)CCN1	-6.625
CCCOc1cc(C)ccc1NC(=O)N(C)C	-5.15
Cn1nc(C(=O)NCc2ccccn2)c2c1CCS(=O)(=O)C2	-15.69
CCc1cc(CNC(=O)N2CCC(Cc3cnn(C)c3)C2)on1 (centres undefined)	-4.444
CCc1ncc(CN(C)C2CCN(C(C)C)CC2)cn1	-4.321
COc1ccc(OCCc2nnc(NC(C)=O)s2)cc1	-8.34
CNS(=O)(=O)c1ccc(C(=O)N2CCCC(n3cccn3)C2)cc1 (centres undefined)	-8.467
O=C(CCN1CCc2ccccc21)N1CC(C(=O)N2CCOCC2)C1	-1.642
CC(c1cn2ccsc2n1)N1Cc2ncccc2C1=O (centres undefined)	-32.56
Cc1ccccc1-n1cc(-c2ccnc(NC(CO)C(C)C)n2)cn1 (centres undefined)	-16.2
CCC(NCc1cc[nH]n1)c1nc(C(F)(F)F)cs1 (centres undefined)	-20.73
COCCN1CCC(CNC(=O)C2(C#N)CCCCC2)CC1	-19.89
CC(C)(C)CN1CCN(CC2CC2)C(CCO)C1 (centres undefined)	-17.51
COc1ncccc1CNC(=O)N1CCC(CN2CCOCC2)CC1	-0.3338
c1ccc(Cn2ccnc2CN2CCCC2c2noc(C3CC3)n2)cc1 (centres undefined)	-22.45
Cc1cc(C)c2c(c1)C1(CC(=O)Nc3c1cnn3C(C)C)C(=O)N2 (centres undefined)	-30.13
O=S(=O)(N1CCCC1)N1C[C@@H](c2cccc(F)c2)[C@@H]2NCCCCC[C@H]21	-22.22
CCN(Cc1cnn(C)c1)C[C@H]1CC[C@@H](Cc2ccc(CO)cc2)O1	-5.818
COC(=O)CSCc1noc(-c2ccc(C)cc2)n1	-4.906
CCc1nc(CN(C)C2CCN(CCCOc3ccccc3)C2)no1 (centres undefined)	-13.97
O=C(CN1CCN(c2ncnc3cccc(F)c23)CC1)N1CCCC1	-11.84
O=C(CCN1CCCC(CO)(CC2CC2)C1)NC1CCCCC1 (centres undefined)	-13.53
Cn1cc(C(=O)NC[C@H]2OC[C@@H]3CCN(C4CCOCC4)C[C@@H]32)cn1	-10.4
CC(C)C(=O)N1CCC2(CCCN(CCOc3ccccc3)C2)C1 (centres undefined)	-1.649
NCCC(=O)N1CCC2(CC1)CN(C(=O)c1ccc(Cl)cc1)CCO2	-8.255
Cc1nn(C)c(Cl)c1C1CCCN1C(=O)c1ccnn1C (centres undefined)	-3.752
O=C(C1CCC2(CCN(CC3CC3)CC2)O1)N1CCCC1 (centres undefined)	-41.03
Cn1cc(-c2csc(N3CCN(c4nccs4)CC3)n2)cn1	-1.378
O=C(NCCNS(=O)(=O)c1ccc2c(c1)CCC2)c1ccccc1	-8.258
CNc1ncc(CN(C)c2nc(C3CCCC3)nc3c2cnn3C)cn1	6.628
O=C1OCCN1Cc1ccc(C(F)(F)F)cc1F	-13.44
COc1ccc(CN(Cc2ccccn2)Cc2cncn2C)cc1	-79.59
COC(=O)CC(NC(=O)c1ccccc1OC)c1cccs1 (centres undefined)	-21.68
Cc1nnc(N2C[C@@H]3CCCO[C@@H]3[C@H](N(C)C)C2)s1	26.33
O=C(NCc1ncc[nH]1)c1c(F)cccc1I	-0.7411
O=C(CC1CCN(CCc2ccccc2)CC1)N1CCCOCC1	0.9647
CC(C)Oc1cccc(-c2nc3c([nH]2)CCCNC3=O)c1	-0.7887
CN1CCC(NC(=O)Nc2ccc(Br)c(F)c2)C1=O (centres undefined)	-6.962
CCn1cc(C(=O)N2CCOCC2)cn1	-7.265
Cc1nn(C)c(Cl)c1C(=O)NCc1cccnc1N1CCOCC1	6.009
CN(CC(=O)N1CCCC(n2ccnc2)C1)c1cnccn1 (centres undefined)	-5.398
OC1(CNCc2noc(Cc3ccccc3)n2)CCCNC1 (centres undefined)	-31.05
CCC(NS(=O)(=O)N1CCOCC1)c1ccccc1OC (centres undefined)	-17.47

The last 5 entries again:

- CCn1cc(C(=O)N2CCOCC2)cn1 | -7.265%
- Cc1nn(C)c(Cl)c1C(=O)NCc1cccnc1N1CCOCC1 | 6.009%
- CN(CC(=O)N1CCCC(n2ccnc2)C1)c1cnccn1 (centres undefined) | -5.398%
- OC1(CNCc2noc(Cc3ccccc3)n2)CCCNC1 (centres undefined) | -31.05%
- CCC(NS(=O)(=O)N1CCOCC1)c1ccccc1OC (centres undefined) | -17.47%